# Test results as given in paper PMC5996148.
# Where “and” joins values, the source holds several entries; their conditions need not be identical. Equal values may be shown once. Some of the results follow. For some assays here: The source does not settle which construct or isoform was used.
# Experiments:
# Assay in all cases: protein microarray (ProtoArray v5.0), streptavidin-Alexa Fluor 647
# Details in all cases: 3'-biotin; 20 mM Tris (pH 7.5), 5 mM MgCl2, 100 mM KCl, 0.1% Tween-20, A/T-rich and random oligonucleotide blockers; temperature not stated; high values mean tight binding
# RALA (human) = tested on: RALA (human)
# RAMP3 (human) = tested on: RAMP3 (human)
# RANGAP1 (human) = tested on: RANGAP1 (human)
# RAP1A (human) = tested on: RAP1A (human)
# RAP1B (human) = tested on: RAP1B (human)
# RAP1GDS1 (human) = tested on: RAP1GDS1 (human)
# RAP2B (human) = tested on: RAP2B (human)
# RASGRP3 (human) = tested on: RASGRP3 (human)
# RASSF5 (human) = tested on: RASSF5 (human)
# RBED1 = molecular target: T1, RBED1 (UniProt Q96FG2)
# T1 sequence: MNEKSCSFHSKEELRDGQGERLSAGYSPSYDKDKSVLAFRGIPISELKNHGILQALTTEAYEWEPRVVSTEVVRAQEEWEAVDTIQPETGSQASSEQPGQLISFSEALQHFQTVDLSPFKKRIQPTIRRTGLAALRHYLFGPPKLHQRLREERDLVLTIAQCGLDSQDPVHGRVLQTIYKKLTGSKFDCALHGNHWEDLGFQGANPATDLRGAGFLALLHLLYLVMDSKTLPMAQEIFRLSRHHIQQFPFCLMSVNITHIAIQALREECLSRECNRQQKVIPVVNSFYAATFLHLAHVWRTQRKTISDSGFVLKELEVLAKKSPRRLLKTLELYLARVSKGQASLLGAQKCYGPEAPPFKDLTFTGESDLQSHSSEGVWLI
# RBKS (human) = tested on: RBKS (human)
# RBM33 (human) = tested on: RBM33 (human)
# RBM9 (human) = tested on: RBM9 (human)
# RCP9 (human) = tested on: RCP9 (human)
# RCSD1 (human) = tested on: RCSD1 (human)
# RCVRN (human) = tested on: RCVRN (human)
# RD3 (human) = tested on: RD3 (human)
# RDH11 (human) = tested on: RDH11 (human)
# RDH12 (human) = tested on: RDH12 (human)
# RDHE2 (human) = tested on: RDHE2 (human)
sequence,measurement,setting,value
GGGAGGCTGAGGCAGG [G4-1 biotinylated (PQS2)],binding signal,RALA (human),-0.277 z-score
same,binding signal,RAMP3 (human),-0.275 z-score
same,binding signal,RANGAP1 (human),-0.332 z-score
same,binding signal,RAP1A (human),-0.308 z-score
same,binding signal,RAP1B (human),-0.305 z-score
same,binding signal,RAP1GDS1 (human),-0.355 z-score and -0.371 z-score and -0.361 z-score
same,binding signal,RAP2B (human),-0.307 z-score
same,binding signal,RASGRP3 (human),-0.312 z-score
same,binding signal,RASSF5 (human),-0.337 z-score
same,binding signal,RBED1,-0.321 z-score
same,binding signal,RBKS (human),-0.285 z-score
same,binding signal,RBM33 (human),-0.332 z-score
same,binding signal,RBM9 (human),-0.342 z-score
same,binding signal,RCP9 (human),-0.341 z-score
same,binding signal,RCSD1 (human),-0.346 z-score
same,binding signal,RCVRN (human),-0.324 z-score
same,binding signal,RD3 (human),-0.303 z-score
same,binding signal,RDH11 (human),-0.289 z-score and -0.318 z-score
same,binding signal,RDH12 (human),-0.381 z-score
same,binding signal,RDHE2 (human),-0.332 z-score

# As a short view, some entries already given.
sequence,measurement,setting,value
GGGAGGCTGAGGCAGG [G4-1 biotinylated (PQS2)],binding signal,RASSF5 (human),-0.337 z-score
same,binding signal,RBED1,-0.321 z-score
